Data on two molecules can be found in patent US6660841.

Amino acid sequences for entries named in this document (tags omitted). A change or cut given only in a name is not applied to a line headed by its entry.
UniProt P04386: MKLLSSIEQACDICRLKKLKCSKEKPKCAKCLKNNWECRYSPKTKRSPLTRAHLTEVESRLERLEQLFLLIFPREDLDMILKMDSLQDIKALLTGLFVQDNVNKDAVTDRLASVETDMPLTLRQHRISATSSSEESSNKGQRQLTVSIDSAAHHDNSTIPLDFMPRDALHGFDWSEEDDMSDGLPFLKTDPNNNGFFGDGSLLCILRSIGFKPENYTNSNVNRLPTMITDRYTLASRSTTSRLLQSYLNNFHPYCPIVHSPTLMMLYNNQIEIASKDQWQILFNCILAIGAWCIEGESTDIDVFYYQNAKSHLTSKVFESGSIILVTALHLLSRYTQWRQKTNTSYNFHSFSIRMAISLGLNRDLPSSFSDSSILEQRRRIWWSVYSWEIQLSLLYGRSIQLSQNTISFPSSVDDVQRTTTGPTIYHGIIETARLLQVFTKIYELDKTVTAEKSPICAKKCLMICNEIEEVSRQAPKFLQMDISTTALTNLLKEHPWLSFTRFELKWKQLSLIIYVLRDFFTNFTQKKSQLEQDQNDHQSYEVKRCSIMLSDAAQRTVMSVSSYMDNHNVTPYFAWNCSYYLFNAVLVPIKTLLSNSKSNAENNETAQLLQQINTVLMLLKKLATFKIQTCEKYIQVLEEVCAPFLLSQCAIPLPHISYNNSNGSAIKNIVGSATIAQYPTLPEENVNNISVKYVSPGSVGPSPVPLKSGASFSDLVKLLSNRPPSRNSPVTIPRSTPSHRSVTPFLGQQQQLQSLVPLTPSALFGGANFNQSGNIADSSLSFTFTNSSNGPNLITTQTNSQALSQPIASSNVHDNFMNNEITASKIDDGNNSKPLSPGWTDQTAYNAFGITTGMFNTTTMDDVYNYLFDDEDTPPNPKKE

The target of assay [1] is T1, native CREM proteins from testis extract (mouse) (UniProt P27699).
T1 sequence (looked up): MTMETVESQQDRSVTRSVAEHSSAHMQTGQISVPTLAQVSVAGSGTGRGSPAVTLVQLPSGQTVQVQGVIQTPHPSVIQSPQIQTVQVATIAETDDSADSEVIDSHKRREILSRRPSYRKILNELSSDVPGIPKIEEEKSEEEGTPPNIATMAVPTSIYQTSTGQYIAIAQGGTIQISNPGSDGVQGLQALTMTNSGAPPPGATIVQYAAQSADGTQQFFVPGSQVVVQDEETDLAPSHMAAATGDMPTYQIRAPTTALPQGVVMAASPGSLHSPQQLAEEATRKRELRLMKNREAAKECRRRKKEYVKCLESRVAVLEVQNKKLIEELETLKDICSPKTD
As to the kind of experiment: co-immunoprecipitation from mouse testis extract with the anti-ACT antibody.

In another assay the target is G4CREM (UniProt P04386). As to the kind of experiment: co-immunoprecipitation from COS cells with Gal4-DBD antibodies, western with CREM and Myc antibodies (wild-type G4CREM as reference).
Assay [2] addresses T2, CREM (expression vector, COS cells) (UniProt P27699).
T2 sequence (looked up): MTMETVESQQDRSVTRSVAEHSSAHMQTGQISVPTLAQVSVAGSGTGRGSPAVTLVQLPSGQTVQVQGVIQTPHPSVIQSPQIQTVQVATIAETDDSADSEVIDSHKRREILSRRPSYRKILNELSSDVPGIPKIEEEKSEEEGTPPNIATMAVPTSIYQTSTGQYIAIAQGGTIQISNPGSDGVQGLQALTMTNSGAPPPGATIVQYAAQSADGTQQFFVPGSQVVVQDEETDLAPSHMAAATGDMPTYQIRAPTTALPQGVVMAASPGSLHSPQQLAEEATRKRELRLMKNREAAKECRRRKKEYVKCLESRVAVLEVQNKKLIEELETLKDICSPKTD
Description: co-immunoprecipitation from co-transfected cells with anti-CREM antibodies and, conversely, with an anti-Myc antibody.

For assay [3], the target named is T2, CREM (expression vector, COS cells). As to the kind of experiment: co-immunoprecipitation with CREM and Myc antibodies, western with the reciprocal antibody.

Results are given in words; binding and its absence hold for the method and conditions named. In cells and extracts the contact can be indirect. Some results given as binding are weak or reduced against the parent protein; the word gives no strength. For some of these results: Sequences can lack the tags named with a protein.

B1: ACT (Activator of CREM in Testis) (protein)
chain: MTSSQFDCQYCTSSLIGKKYVLKDDNLYCISCYDRIFSNYCEQCKEPIESDSKDLCYKNRHWHEGCFRCNKCHHSLVEKPFVAKDDRLLCTDCYSNECSSKCFHCKRTIMPGSRKMEFKGNYWHETCFVCEHCRQPIGTKPLISKESGNYCVPCFEKEFAHYCNFCKKVITSGGITFRDQIWHKECFLCSGCRKELYEEAFMSKDDFPFCLDCYNHLYAKKCAACTKPITGLRGAKFICFQDRQWHSECFNCGKCSVSLVGEGFLTHNMEILCRKCGSGADTDA
B1: the binding entry in assay [1] was “binds”.

B2: Myc-tagged ACT (protein, not shown: small tags and cut ends)
chain: MTSSQFDCQYCTSSLIGKKYVLKDDNLYCISCYDRIFSNYCEQCKEPIESDSKDLCYKNRHWHEGCFRCNKCHHSLVEKPFVAKDDRLLCTDCYSNECSSKCFHCKRTIMPGSRKMEFKGNYWHETCFVCEHCRQPIGTKPLISKESGNYCVPCFEKEFAHYCNFCKKVITSGGITFRDQIWHKECFLCSGCRKELYEEAFMSKDDFPFCLDCYNHLYAKKCAACTKPITGLRGAKFICFQDRQWHSECFNCGKCSVSLVGEGFLTHNMEILCRKCGSGADTDA
In the case of B2, the binding result (with G4CREM; in assay [2]; in assay [3]) was “binds” in each case.
